Laboratory results published in article PMC8357790.
These are yes or no findings as the source states them, for the method shown. Some results given as binding are weak or reduced against the parent protein; the word gives no strength. Where a sequence is shown, tags or fusion partners need not be part of it.

The chains behind the UniProt entries cited, without tags or fusion partners.
UniProt Q8N122: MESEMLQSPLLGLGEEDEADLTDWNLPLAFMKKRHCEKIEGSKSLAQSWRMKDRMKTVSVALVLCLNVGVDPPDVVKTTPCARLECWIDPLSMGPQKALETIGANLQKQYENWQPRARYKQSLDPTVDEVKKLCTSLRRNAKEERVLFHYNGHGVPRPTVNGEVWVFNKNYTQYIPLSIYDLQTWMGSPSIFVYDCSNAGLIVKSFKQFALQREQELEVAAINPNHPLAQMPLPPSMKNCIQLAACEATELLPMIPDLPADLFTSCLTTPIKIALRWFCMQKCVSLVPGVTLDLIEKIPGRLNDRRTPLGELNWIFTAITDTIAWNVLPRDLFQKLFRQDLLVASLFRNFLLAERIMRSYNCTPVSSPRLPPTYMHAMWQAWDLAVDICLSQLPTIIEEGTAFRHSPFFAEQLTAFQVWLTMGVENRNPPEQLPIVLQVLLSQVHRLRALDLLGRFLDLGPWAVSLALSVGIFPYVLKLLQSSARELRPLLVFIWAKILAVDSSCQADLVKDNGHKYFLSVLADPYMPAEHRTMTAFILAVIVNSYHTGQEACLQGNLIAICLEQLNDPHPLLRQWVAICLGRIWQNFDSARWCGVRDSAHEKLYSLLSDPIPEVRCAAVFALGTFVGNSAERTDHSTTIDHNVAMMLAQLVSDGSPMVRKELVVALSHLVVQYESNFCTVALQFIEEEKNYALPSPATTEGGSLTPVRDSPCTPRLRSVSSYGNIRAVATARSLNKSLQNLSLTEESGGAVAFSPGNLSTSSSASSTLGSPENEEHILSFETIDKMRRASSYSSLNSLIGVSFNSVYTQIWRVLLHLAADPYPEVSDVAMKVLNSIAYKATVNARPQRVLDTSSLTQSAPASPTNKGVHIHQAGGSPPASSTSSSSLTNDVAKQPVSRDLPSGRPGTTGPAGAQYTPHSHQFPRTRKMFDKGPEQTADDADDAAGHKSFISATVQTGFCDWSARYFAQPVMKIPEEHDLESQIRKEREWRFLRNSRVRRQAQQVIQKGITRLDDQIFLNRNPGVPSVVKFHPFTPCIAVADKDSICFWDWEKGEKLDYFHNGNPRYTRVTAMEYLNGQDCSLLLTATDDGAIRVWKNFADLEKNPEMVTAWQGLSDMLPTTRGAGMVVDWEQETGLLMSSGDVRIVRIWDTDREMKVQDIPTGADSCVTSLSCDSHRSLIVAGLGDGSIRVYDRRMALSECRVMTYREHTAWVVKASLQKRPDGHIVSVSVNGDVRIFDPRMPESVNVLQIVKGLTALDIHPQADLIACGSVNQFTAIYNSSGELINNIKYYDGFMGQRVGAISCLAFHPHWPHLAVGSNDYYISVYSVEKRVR

Target: T1, FLAG-HA-Unkempt (UniProt Q8BL48)
T1 sequence: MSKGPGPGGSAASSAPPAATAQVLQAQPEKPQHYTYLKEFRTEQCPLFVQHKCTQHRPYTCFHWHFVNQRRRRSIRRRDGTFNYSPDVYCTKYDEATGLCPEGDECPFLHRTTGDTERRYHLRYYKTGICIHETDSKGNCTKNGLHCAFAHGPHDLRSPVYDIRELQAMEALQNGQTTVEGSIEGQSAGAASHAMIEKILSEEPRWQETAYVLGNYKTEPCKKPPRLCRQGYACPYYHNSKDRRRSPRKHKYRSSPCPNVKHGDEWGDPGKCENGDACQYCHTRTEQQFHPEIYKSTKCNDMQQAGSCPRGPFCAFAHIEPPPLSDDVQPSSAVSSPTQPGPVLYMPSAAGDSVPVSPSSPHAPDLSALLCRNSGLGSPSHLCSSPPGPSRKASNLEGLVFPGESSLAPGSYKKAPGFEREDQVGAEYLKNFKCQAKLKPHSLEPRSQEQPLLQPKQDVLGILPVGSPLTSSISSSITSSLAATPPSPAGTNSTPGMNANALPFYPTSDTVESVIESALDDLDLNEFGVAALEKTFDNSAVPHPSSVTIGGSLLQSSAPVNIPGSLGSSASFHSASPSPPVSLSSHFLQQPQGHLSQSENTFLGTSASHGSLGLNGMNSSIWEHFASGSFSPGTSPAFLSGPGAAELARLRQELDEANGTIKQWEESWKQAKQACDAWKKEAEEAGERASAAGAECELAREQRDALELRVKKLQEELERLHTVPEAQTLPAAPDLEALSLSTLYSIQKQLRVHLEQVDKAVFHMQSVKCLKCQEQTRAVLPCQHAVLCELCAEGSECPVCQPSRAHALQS
Assay: far-Western, overlay or dot blot; Raptor overlay assay: purified FLAG-HA-Unkempt, mock purified extract or recombinant 4E-BP1 dotted onto PVDF membrane; incubated with lysate of HEK293 cells overexpressing HA-Raptor, HA-Raptor mutant 4 or carrying empty vector; probed with an anti-Raptor antibody; only the target purified

binding: binds
Substance: HA-Raptor (wild-type) (from UniProt Q8N122 1-1335)
